# In publication PMC7819943, “Rice protein-binding microarrays: a tool to detect cis-acting elements near promoter regions in rice”:
# Chains of the proteins cited; added tags and fusions are not shown.
# UniProt Q0JBA9, entry or part of it: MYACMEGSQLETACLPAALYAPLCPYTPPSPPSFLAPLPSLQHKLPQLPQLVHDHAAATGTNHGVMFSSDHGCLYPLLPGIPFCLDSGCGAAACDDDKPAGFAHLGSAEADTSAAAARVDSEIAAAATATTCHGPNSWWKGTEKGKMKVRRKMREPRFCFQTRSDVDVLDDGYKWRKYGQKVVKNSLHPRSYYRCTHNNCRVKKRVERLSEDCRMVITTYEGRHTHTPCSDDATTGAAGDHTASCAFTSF
# This is one part of the list.
# Target: OsWRKY34 (Oryza sativa, UniProt Q0JBA9 1-250)
# Experiment: protein-binding microarray (RPBM); PBS, 2% BSA, 51.3 ng/ul salmon testes DNA, 50 uM zinc acetate, 200 nM TF, 25 C, 1 h; high values mean tight binding
# Details: protein: recombinant; tags: N-terminal polyhistidine and DsRed monomer fusion (pET32a); label: CyDye5-dUTP incorporated in the synthesized complementary strand; 3' TTTTT single-stranded linker to array surface; dsDNA, one strand shown
# Outline: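 Transcription factors were each fused at the N-terminus to a polyhistidine tag plus DsRed and expressed in E. coli BL21-CodonPlus before Ni–NTA purification. Binding to a double-stranded custom Agilent array was carried out with 200 nM protein at 25 °C for 1 h in PBS, 2% BSA, salmon testes DNA and 50 µM zinc acetate. The binding signal is per-feature fluorescence intensity, in arbitrary units, on an Axon 4000B scanner.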
row,Sequence,binding signal
1,CCAGCAGTAGCCAATCCCACTGCACGTCCGCACGCAGCCACGGAGTCACCTAGTGCAG,8390 fluorescence intensity (a.u.)
2,TTGTGCTCTCCTTTTGTCAGTTCCTGAGGCGCTCTCTCCTCGGAGTCACCTAGTGCAG,8930 fluorescence intensity (a.u.)
3,TAAAATAGCTTTCACCCACGGGCGGGACATTTTTTCTAAGCGGAGTCACCTAGTGCAG,10600 fluorescence intensity (a.u.)
4,CCGCTCCGCCCAGCACCCGCCGACCGCTGCCGCTCTCGCACGGAGTCACCTAGTGCAG,11400 fluorescence intensity (a.u.)
5,GGAGGTCGGTCTCGATCGCCATTGATGGCCACTCGTTTCCCGGAGTCACCTAGTGCAG,8140 fluorescence intensity (a.u.)
6,CTTATTTGCACTGGTTTTGAGAGTTGAGGGACACGTCATACGGAGTCACCTAGTGCAG,8280 fluorescence intensity (a.u.)
7,AAACGCCAACGCCATACTCCACCTGACCTCACACTCGCACCGGAGTCACCTAGTGCAG,9220 fluorescence intensity (a.u.)
8,GCCTTCTGGAGTCGATTCACTAATCCGTCCCTTTTGAATACGGAGTCACCTAGTGCAG,8270 fluorescence intensity (a.u.)
9,CAAGATTGTGACTCTGACCAGTAACACCGGCACACTTGCACGGAGTCACCTAGTGCAG,8530 fluorescence intensity (a.u.)
10,CTCTCCATCCGCTCGCGGCTCGCGCTCGCCCATCCAATCCCGGAGTCACCTAGTGCAG,10600 fluorescence intensity (a.u.)
11,TTCTTGGCCGGTCGAGGTGGTGGTGGTGGTGATAAACGGTCGGAGTCACCTAGTGCAG,8650 fluorescence intensity (a.u.)
12,GACTTTTTTCTGACACTTATTTTTGCCTTTCTATATGTTCCGGAGTCACCTAGTGCAG,9200 fluorescence intensity (a.u.)
13,GGGGATTAATGGATTATAATGTGTCTTATAACTAAAAGGACGGAGTCACCTAGTGCAG,8840 fluorescence intensity (a.u.)
14,GTGGCAAACTTTTATATGGTGGTCTGTGACTTTGTGTGCTCGGAGTCACCTAGTGCAG,8670 fluorescence intensity (a.u.)
15,AGGATAATTCAAATGGTTTTGGGCTTATTTTTTTTTTTTACGGAGTCACCTAGTGCAG,11000 fluorescence intensity (a.u.)
16,AGGGGAGATAGGAAAATTGGATTCGGTGGGTTGAGGCAGTCGGAGTCACCTAGTGCAG,8190 fluorescence intensity (a.u.)
17,AACCCTTTAATTTGTTCTTTGCTTCTTTAATCGTTGTTGACGGAGTCACCTAGTGCAG,13000 fluorescence intensity (a.u.)
18,GCTCTATGTGCTGTCCATCTGCCTTTTATTAATTAGCATTCGGAGTCACCTAGTGCAG,12700 fluorescence intensity (a.u.)
19,TATTGGTTAGCTTATTTTGCTTAAATGGCTGATCAGCCAACGGAGTCACCTAGTGCAG,8900 fluorescence intensity (a.u.)
20,TTGTTGGCAAGTTTCTTCCCTTGTCTCTCTCTTGTGAGACCGGAGTCACCTAGTGCAG,8700 fluorescence intensity (a.u.)
21,TCCTACCAGCTTCTTCGGCTCTTCCCATAAACTGCAGAGTCGGAGTCACCTAGTGCAG,8720 fluorescence intensity (a.u.)

row,Sequence,binding signal
1,CAGCCGTATTTCTACTAGTCCAGTCTTTTTCAGCAATAAACGGAGTCACCTAGTGCAG,8160 fluorescence intensity (a.u.)
2,TTTCCACCACCACCACCACCGATCTCGCCGCTGTCCAACGCGGAGTCACCTAGTGCAG,8460 fluorescence intensity (a.u.)
3,TGATTATTGTATGCAAACCTATTCTGTCATCTGGTGAGATCGGAGTCACCTAGTGCAG,8530 fluorescence intensity (a.u.)
4,TTTACGTTTGCCTGCATCTTTCTGACCTGTATACTAATTTCGGAGTCACCTAGTGCAG,13300 fluorescence intensity (a.u.)
5,ATCCAACATTCCCACTATCAGATTCGATCATTTACTGTTGCGGAGTCACCTAGTGCAG,8480 fluorescence intensity (a.u.)
6,TTCCCCTTCGCCAACTCAGCATAACCTTCTACCTCAACTACGGAGTCACCTAGTGCAG,8270 fluorescence intensity (a.u.)
7,CACCGTCCACAGTCTCGTTCCCGCTCCACGCGCGCGCCGCCGGAGTCACCTAGTGCAG,9480 fluorescence intensity (a.u.)
8,CATTGACATCTTATTTGGTTGTTTGCCGATCATATGCTCTCGGAGTCACCTAGTGCAG,9170 fluorescence intensity (a.u.)
9,GTCGCGCGAGGCTGTACCACTACTTGTGTTTGTTTACTCACGGAGTCACCTAGTGCAG,8440 fluorescence intensity (a.u.)
10,CACCCCTTGCTACTGCAGTATCAAATGCATCTCTATAATACGGAGTCACCTAGTGCAG,9670 fluorescence intensity (a.u.)
11,GCCCGCGTGGGGCCCACGTTGACTCAGCACAAACTGACTACGGAGTCACCTAGTGCAG,9410 fluorescence intensity (a.u.)
12,ACTGCCTCCCCTCGTCCGTCCCCAGTTCGTCACCCTTCATCGGAGTCACCTAGTGCAG,9370 fluorescence intensity (a.u.)
13,TTTATTGCAGTCTATTATCTATCTTTGTTTCAAATTATTACGGAGTCACCTAGTGCAG,8200 fluorescence intensity (a.u.)
14,ATATTTTGTTTTGCTTTTCTCAGTTTGGGTCCTCTCTTCTCGGAGTCACCTAGTGCAG,8770 fluorescence intensity (a.u.)
15,AAGCCACACCCTTAAGGGTCTCTTTGAATCGCAGGGTTGACGGAGTCACCTAGTGCAG,8230 fluorescence intensity (a.u.)
16,CCCACGGTTTGTACCGCCGGTAAACGCCCTCGCGACCCTTCGGAGTCACCTAGTGCAG,8400 fluorescence intensity (a.u.)
17,GCGCTTCCGCCGTGCTTCCCCACTGCGGCGGCCGCCGCCACGGAGTCACCTAGTGCAG,9370 fluorescence intensity (a.u.)
18,ACGTTGTTTGTGTCACGCTTCTCAAATCCCTTGGTGTTCTCGGAGTCACCTAGTGCAG,11700 fluorescence intensity (a.u.)
19,CACCTGCCGCTGCTCCGACGGCCGCCTCGTCGTCGACTTCCGGAGTCACCTAGTGCAG,8130 fluorescence intensity (a.u.)
20,AAATATTTGACCGTTCGTTTATTATTTTTATTTTTTTTACCGGAGTCACCTAGTGCAG,12200 fluorescence intensity (a.u.)
21,TTAGTAGTAGTAGCAGCACACAAGCATTTAATCTTCTTTTCGGAGTCACCTAGTGCAG,8560 fluorescence intensity (a.u.)

row,Sequence,binding signal
1,CTTTCAGGCTTCATTCAGACTTCAGCTCAGTCATTCAGGCCGGAGTCACCTAGTGCAG,8850 fluorescence intensity (a.u.)
2,GCATATAAACTCTACTTCTCTCTGTTTGATATGTTGGTCACGGAGTCACCTAGTGCAG,9290 fluorescence intensity (a.u.)
3,GGGGATTGGGAGTTTATACAAGGGAATTGATGGTGAGATTCGGAGTCACCTAGTGCAG,8440 fluorescence intensity (a.u.)
4,AAGCATACATCGATGTCCTCAATCTTGACTGTCTTCATCACGGAGTCACCTAGTGCAG,12000 fluorescence intensity (a.u.)
5,TGTGGTATATTTTCTGTGGCCCTGAAAATATTTGGTTCAACGGAGTCACCTAGTGCAG,8500 fluorescence intensity (a.u.)
6,AATATGGTGCCAATTTTTTTTTTCGGTTTTGCTACTTCACCGGAGTCACCTAGTGCAG,11900 fluorescence intensity (a.u.)
7,AGATTGGGTTTGGGTGGTGTGAGGATTGATTTGTTTTTTTCGGAGTCACCTAGTGCAG,17800 fluorescence intensity (a.u.)
8,CCCTAGTGGGTAGGATTTGGGCGGGCGACGACGGGCATGGCGGAGTCACCTAGTGCAG,8240 fluorescence intensity (a.u.)
9,GGCGGTGGCGGTGGAGGCGGCGGCGGCTATCGTGGGGATGCGGAGTCACCTAGTGCAG,8280 fluorescence intensity (a.u.)
10,TTTTACACATATTCCATCTTCGCTCTTTTGTTCTGGGAAACGGAGTCACCTAGTGCAG,10500 fluorescence intensity (a.u.)
11,GGCGAATCTTGCAGTCTCATTTTCTACCAGTCCTGGTTTGCGGAGTCACCTAGTGCAG,8350 fluorescence intensity (a.u.)
12,TAATTTGATGTGGTATGTGTTAGTTTATTTTTCATCAAAACGGAGTCACCTAGTGCAG,12200 fluorescence intensity (a.u.)
13,TCCCGGCGCCAGATCTGCTTCTCATCTCCACAAGGACACCCGGAGTCACCTAGTGCAG,8970 fluorescence intensity (a.u.)
14,TATGGGTAGGTTCTTGTTCTATGGGGCAGGGGTCTTAAAGCGGAGTCACCTAGTGCAG,17100 fluorescence intensity (a.u.)
15,TGCTGTGTGTTTGTGTTTCGACTGGTTAGACCAGCATGTTCGGAGTCACCTAGTGCAG,9090 fluorescence intensity (a.u.)
16,TTTTTTGTTCTTCCTCGAACTCGAAGAACGCACACCGTCTCGGAGTCACCTAGTGCAG,9020 fluorescence intensity (a.u.)
17,GACGGCCTGACCCCACCATTCTTCTTCTCCAAGCAACCGTCGGAGTCACCTAGTGCAG,8180 fluorescence intensity (a.u.)
18,CTCACCTAACACACATGCACAGACGATCTCATGACATTAACGGAGTCACCTAGTGCAG,8320 fluorescence intensity (a.u.)
19,GATCTGGGTATCTTTCCGTCAATCAAATTGCCACTTAAATCGGAGTCACCTAGTGCAG,8480 fluorescence intensity (a.u.)
20,GGGGTTGGTGGACGACTATCCAGTCGTGACTCGTAAGGGCCGGAGTCACCTAGTGCAG,9840 fluorescence intensity (a.u.)
21,AAGCAAAACGAGTCTCCATCTCCACAGTGGGCGTAGCTTTCGGAGTCACCTAGTGCAG,8380 fluorescence intensity (a.u.)

row,Sequence,binding signal
1,CTATCGTCGTCGTCGTCATCATCATCTTTTTTCTATTGTTCGGAGTCACCTAGTGCAG,8830 fluorescence intensity (a.u.)
2,TCATCTATTCTCTTCCTTCTTTTCTGTTCTGCATTTCTGTCGGAGTCACCTAGTGCAG,12400 fluorescence intensity (a.u.)
3,TTCCCCATCCGAGCCTTGAGCTCTTCTTCTTCTCTCTCTCCGGAGTCACCTAGTGCAG,9300 fluorescence intensity (a.u.)
4,GTTACTTGTTCGTCTCAACCATCCTTATTTTAACATGATACGGAGTCACCTAGTGCAG,10400 fluorescence intensity (a.u.)
5,ATCGCAAGCACTGAAGCACCCACACACCCTACCTCCACACCGGAGTCACCTAGTGCAG,8310 fluorescence intensity (a.u.)
6,ACACGTTCCCGCGCCCATTTTTCTTTACATTATCCTCGGACGGAGTCACCTAGTGCAG,10700 fluorescence intensity (a.u.)
7,CGGCTCCACCTCGCGCCCTGACCTGACGCGGATAGGTTTTCGGAGTCACCTAGTGCAG,9700 fluorescence intensity (a.u.)
8,TGGTGGTGGGTGAGTGTTGGGTGCGCAGGCTCTGGGGTAACGGAGTCACCTAGTGCAG,12900 fluorescence intensity (a.u.)
9,CAATCATTCTCATATACTTTCTTAATACCGTGCCAACCTTCGGAGTCACCTAGTGCAG,8780 fluorescence intensity (a.u.)
10,TAATTTGGTCCATGCCATGCTGATAAAGCATGTTTCTTCTCGGAGTCACCTAGTGCAG,9060 fluorescence intensity (a.u.)
11,CACTACTATTTTGGTACTATCTCATCCTGCAGTGTACACGCGGAGTCACCTAGTGCAG,8750 fluorescence intensity (a.u.)
12,TTTTTTTGTTGGTTTGTGGTGTTCTGGAGCATTCTTTGAACGGAGTCACCTAGTGCAG,8290 fluorescence intensity (a.u.)
13,AGGCAGAAGATCCGTCCCGTACTCCCGTCGTCCATCATTCCGGAGTCACCTAGTGCAG,8950 fluorescence intensity (a.u.)
14,GCTGAGTATATGTGTGTGCACACGTCTTCCAACGTGTCATCGGAGTCACCTAGTGCAG,9000 fluorescence intensity (a.u.)
15,GATTCCCCAACGGTCAACCCCTAAACCCTAGATTTCCATCCGGAGTCACCTAGTGCAG,8040 fluorescence intensity (a.u.)
16,CGACGACCACACGAGCGCCGTACCAAATCCTGCCTATATACGGAGTCACCTAGTGCAG,8130 fluorescence intensity (a.u.)
17,CCCACTGGTTGTCCGCCTGCTTCTCCCCGCCCCAATCCACCGGAGTCACCTAGTGCAG,8790 fluorescence intensity (a.u.)
18,ATTATTTGTCATCGGCACCTAGCCGATCCGCTGTCATTTACGGAGTCACCTAGTGCAG,12700 fluorescence intensity (a.u.)
19,AGTTTGTGTCGTGAAAGGGAATTCATTATCGTCCTGCCCTCGGAGTCACCTAGTGCAG,8150 fluorescence intensity (a.u.)
20,ATCAGTGTATGGTGCTCTGTTCAGTTCATCATCAGCATCACGGAGTCACCTAGTGCAG,8330 fluorescence intensity (a.u.)
21,ACCTGCCTTATCTGTTCTATTTTGCCTTTACTTTCTTTTTCGGAGTCACCTAGTGCAG,13000 fluorescence intensity (a.u.)
